Data from the supplement of paper PMC3334620.
Whole data set: some 33,000 sequences, median “E-score (-0.5 to 0.5)” near -0.0034, cut for the highest 2% near 0.25. The list shows a part of the results.

What follows are sequences tested against T1, Yap3 (UniProt P38749) (assay: PBM E-score (8-mer binding enrichment) (E-score (-0.5 to 0.5)); higher = stronger / more preferred TF binding). Conditions: protein concentration: 100 nM; construct: GST-full length.
T1 sequence: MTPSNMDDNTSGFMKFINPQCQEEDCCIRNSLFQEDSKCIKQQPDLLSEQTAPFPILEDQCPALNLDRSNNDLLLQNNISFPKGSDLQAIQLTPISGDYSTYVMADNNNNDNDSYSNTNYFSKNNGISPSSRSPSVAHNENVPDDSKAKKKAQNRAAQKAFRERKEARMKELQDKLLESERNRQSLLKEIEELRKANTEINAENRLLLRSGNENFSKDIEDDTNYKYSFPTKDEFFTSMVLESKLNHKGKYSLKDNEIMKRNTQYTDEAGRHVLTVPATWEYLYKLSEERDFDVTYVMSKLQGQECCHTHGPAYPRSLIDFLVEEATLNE
Method: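 Universal 'all 10-mer' protein binding microarrays (Agilent AMADID 015681) probed with GST-tagged S. cerevisiae TFs (full-length or DBD) made by in vitro transcription/translation (PURExpress), about 100-200 nM. Bound TF was detected with fluorescent anti-GST. Each ungapped 8-mer (which stands for itself and its reverse complement) is scored by the PBM enrichment score (E-score), a modified Wilcoxon-Mann-Whitney statistic from -0.5 to +0.5, computed with the Universal PBM Analysis Suite. Scale: above 0.35 generally sequence-specific binding.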

Sequence | PBM E-score
ATGTACTG | 0.0402
ACGTTAGC | 0.103
CAGTAAAC | 0.0443
CCTAGGCA | -0.125
ATTAATAC | 0.201
ACAACGAC | 0.117
GAGGCCTC | -0.25
CTCAGGTA | -0.124
ACGGCTCC | -0.021
AAAAAGGA | 0.0323
CCTGAAGC | -0.257
TGTTAAAA | 0.189
CGGTACCA | -0.0367
CTTTACGA | -0.0493
ATATTAAA | 0.378
CGAAGTAG | 0.0201
ACGCAGGC | -0.226
TAAGGTGA | 0.0963
AAGTCCTG | -0.253
CCGTGAAC | -0.161
CGATTTTA | 0.235
ACCCACAG | -0.205
CAGAAATC | 0.0762
CAGACGTC | -0.08
CGCGAATA | 0.117

Sequence | PBM E-score
ACACACCG | -0.0997
AGTCTCTG | -0.131
ATCAAGTC | 0.0326
CAGCGGGA | -0.0551
ACGATTTC | 0.0995
AGATCGAT | 0.142
AGAAAATC | 0.0582
ATACGGAC | 0.0169
AAGAAAAC | 0.154
ATATCGAA | 0.135
ACGATCTC | -0.107
AAGGTTCT | -0.018
CCTGGTTC | -0.0464
CTATGTCC | -0.117
AATACCTA | 0.214
TCAAGAAA | 0.239
CGTAATGC | 0.203
AGAAGCAT | 0.0731
CAAGACGC | -0.0247
GGAAAAAA | 0.248
ATTCGATA | 0.158
TCCGGTAA | 0.0357
GAGAAAAA | 0.095
CACCAAGG | -0.0382
ATGCTACC | 0.0357

Sequence | PBM E-score
CGCTACAG | -0.0993
AAAGCGAT | 0.188
CCCATGGG | -0.128
GTATACTA | -0.112
ACCATGGG | -0.172
GCAGGTAC | -0.146
ACCCTAAA | -0.078
TATTAGAA | 0.287
GCCGCAAA | 0.103
AGGAAAAA | 0.135
ATTCTTGC | 0.104
GCTCGGAC | -0.0978
CGTCTGCC | -0.214
AGTTGCAT | 0.0716
ACACCCGG | -0.139
GCCGGAAC | -0.0692
ATAGTTCA | 0.181
ATAATGCA | 0.121
AATCCCGA | 0.154
ACATTTCA | 0.204
AGAGCATA | 0.00098
CGCAGCAC | -0.00122
AATATGGG | 0.0708
ACATACAT | 0.219
CTTGCTCA | -0.206

Sequence | PBM E-score
ACAGCAAA | 0.0507
CGTGGAAA | 0.252
CACGTTGG | -0.0606
GTAGCAAC | -0.0446
CACCGCAG | -0.0641
ACGGCGCG | 0.14
ACTCCATA | 0.00285
CGTCGACC | -0.0395
ATAGCCGC | 0.00965
GAGCGCCA | -0.234
CGTTTAGA | 0.125
GTCACCCA | -0.129
CTTACACA | 0.0468
AACAGGCA | 0.0613
GATATATC | 0.133
ACTGAGTA | 0.0587
CTGGAATA | 0.198
GTCCACAC | 0.00272
AACTACGC | -0.0379
AAGACCAG | -0.133
TGATGGAA | 0.108
ATGTCACA | 0.17
GTTTAAAA | 0.0984
AATGTGAG | 0.0871
AAGACTAA | 0.0191

Pulled one by one from the list above, 2 records:
Sequence | PBM E-score
CACGTTGG | -0.0606
GAGCGCCA | -0.234

Following part.

Sequence | PBM E-score
TCAGCCAA | -0.0735
ATCTCGCA | 0.126
AGCAGCCG | -0.093
AGAATGCG | 0.0426
CGAAGGCA | -0.16
AAGTGACC | -0.153
ATGTTGGC | 0.152
GCCATTGA | 0.0559
ATTTCAGG | 0.00794
CCAACTTA | 0.0826
GAAGCTGC | -0.0281
CCTTTGAC | -0.0985
CTCTTGGC | -0.101
CGCGTCAC | 0.0199
AAAGTCGT | 0.0717
AAGCGGCT | 0.0678
CAAAACTG | 0.144
ATCCCAAC | -0.0666
CTATCGTC | -0.134
CTGGCTTC | -0.202
ACGAAAAC | 0.202
ATCGGTAC | 0.0358
TAGCGCTA | 0.00734
ATCATAGA | 0.168
ACATGCCG | 0.0724

Sequence | PBM E-score
AAGGACGT | 0.077
TATGGGGA | 0.143
ACAGCTCG | -0.175
GACCTTCA | -0.095
ATTAAACG | 0.215
CGACTGCC | -0.0679
ACAGGCGA | -0.197
CTAGTAAA | 0.0933
CCCACACC | 0.0489
TCCTGGAA | -0.193
ACTACTCC | -0.147
GATGTATA | 0.0115
CGAGCTGA | 0.081
AGCAGCAT | -0.0372
AGGTGACC | -0.307
GGTGTTCA | -0.0114
ACACCAAG | 0.0296
CTGACGGA | -0.00761
AATCGAGC | 0.00828
CACGGCGA | -0.121
CCTTCACA | 0.0677
ACCGACGC | -0.185
AACTTCTG | 0.0514
CCGCGTAC | -0.0388
CCAAGGGA | -0.138

Sequence | PBM E-score
GCTAAGGA | -0.115
ACCCGCCG | 0.127
ACAGGACA | -0.0394
CGCACTGA | -0.0906
AGGCATTG | 0.0156
GGACACTA | -0.0643
ACACCCAA | 0.0757
AGTATCGA | 0.24
CGACAGCG | -0.199
TACGAATA | 0.183
ACCTGTTA | -0.0588
CTCACCGA | -0.115
GTACCTAC | -0.0495
ACTTTTGC | 0.106
AAGTTGCT | -0.127
CTAGCGTA | -0.179
AGACTAGC | -0.245
CCTCCATA | -0.156
ATAGCCGG | -0.123
CTACACAA | 0.183
GGCACCCA | -0.257
CCTAACTA | 0.0805

Taken from the listing for reference:
Sequence | PBM E-score
GGACACTA | -0.0643
ACACCCAA | 0.0757
AGTATCGA | 0.24
CGACAGCG | -0.199
TACGAATA | 0.183
ACCTGTTA | -0.0588
CTCACCGA | -0.115
